Laboratory results as given in the supplement of paper PMC12067093, “Discovery and optimisation of a covalent ligand for TRIM25 and its application to targeted protein ubiquitination” (Chemical Science, 2025).
This is one part of the list.

Amino acid sequences for entries named in this document (tags omitted). A change or cut given only in a name is not applied to a line headed by its entry.
UniProt Q9BSJ2, whole entry, looked up: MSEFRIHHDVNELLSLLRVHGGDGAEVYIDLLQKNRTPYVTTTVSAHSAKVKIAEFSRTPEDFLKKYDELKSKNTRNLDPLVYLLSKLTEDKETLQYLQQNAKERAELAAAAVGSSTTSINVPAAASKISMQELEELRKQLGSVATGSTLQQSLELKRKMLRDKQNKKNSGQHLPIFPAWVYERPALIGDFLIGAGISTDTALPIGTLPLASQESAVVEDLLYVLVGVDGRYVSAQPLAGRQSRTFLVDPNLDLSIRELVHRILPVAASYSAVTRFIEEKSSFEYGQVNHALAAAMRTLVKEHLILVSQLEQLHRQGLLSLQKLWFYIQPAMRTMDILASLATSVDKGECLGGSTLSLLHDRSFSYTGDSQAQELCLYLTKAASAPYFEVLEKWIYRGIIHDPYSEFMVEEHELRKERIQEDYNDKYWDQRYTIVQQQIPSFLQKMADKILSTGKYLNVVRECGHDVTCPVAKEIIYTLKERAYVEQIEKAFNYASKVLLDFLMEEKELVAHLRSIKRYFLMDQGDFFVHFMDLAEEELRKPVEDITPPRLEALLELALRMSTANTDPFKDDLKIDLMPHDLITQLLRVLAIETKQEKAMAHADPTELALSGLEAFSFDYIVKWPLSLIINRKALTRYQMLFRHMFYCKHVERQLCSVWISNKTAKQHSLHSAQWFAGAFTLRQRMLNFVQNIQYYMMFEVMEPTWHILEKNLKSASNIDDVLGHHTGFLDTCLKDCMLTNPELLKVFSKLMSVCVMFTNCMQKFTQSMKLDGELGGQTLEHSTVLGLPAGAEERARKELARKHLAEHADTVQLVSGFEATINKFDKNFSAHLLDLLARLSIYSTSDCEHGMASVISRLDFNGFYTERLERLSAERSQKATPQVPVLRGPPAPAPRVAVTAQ
UniProt Q9UNY4: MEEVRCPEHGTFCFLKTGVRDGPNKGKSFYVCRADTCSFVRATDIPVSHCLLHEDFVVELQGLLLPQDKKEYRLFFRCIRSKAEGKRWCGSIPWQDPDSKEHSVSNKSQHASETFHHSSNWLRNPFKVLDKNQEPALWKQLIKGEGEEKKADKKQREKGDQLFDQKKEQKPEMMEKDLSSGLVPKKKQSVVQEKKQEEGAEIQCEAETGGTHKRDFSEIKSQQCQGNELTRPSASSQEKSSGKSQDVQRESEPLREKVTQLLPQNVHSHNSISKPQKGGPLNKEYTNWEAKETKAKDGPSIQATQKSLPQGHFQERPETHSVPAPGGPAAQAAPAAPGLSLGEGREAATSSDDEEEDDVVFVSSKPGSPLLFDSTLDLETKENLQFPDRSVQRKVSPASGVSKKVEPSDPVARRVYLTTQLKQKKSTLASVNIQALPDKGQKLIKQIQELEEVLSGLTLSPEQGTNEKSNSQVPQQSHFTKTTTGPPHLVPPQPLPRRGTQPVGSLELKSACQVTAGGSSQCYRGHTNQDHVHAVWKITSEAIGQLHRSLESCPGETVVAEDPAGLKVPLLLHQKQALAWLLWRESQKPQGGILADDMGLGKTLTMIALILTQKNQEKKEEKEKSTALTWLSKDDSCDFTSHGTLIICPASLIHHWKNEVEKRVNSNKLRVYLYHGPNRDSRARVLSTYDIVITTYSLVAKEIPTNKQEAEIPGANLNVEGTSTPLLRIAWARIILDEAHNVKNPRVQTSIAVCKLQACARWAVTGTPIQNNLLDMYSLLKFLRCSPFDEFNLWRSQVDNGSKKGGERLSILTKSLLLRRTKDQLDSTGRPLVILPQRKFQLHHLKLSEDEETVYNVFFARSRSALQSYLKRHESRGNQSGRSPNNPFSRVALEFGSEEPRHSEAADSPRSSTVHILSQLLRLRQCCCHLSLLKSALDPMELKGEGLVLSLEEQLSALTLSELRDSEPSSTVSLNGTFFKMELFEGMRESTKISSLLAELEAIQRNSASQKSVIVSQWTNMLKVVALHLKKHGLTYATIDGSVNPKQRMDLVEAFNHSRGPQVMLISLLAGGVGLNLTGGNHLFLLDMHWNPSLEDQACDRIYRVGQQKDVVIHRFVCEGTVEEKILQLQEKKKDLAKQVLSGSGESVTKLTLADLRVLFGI
UniProt Q96AE7: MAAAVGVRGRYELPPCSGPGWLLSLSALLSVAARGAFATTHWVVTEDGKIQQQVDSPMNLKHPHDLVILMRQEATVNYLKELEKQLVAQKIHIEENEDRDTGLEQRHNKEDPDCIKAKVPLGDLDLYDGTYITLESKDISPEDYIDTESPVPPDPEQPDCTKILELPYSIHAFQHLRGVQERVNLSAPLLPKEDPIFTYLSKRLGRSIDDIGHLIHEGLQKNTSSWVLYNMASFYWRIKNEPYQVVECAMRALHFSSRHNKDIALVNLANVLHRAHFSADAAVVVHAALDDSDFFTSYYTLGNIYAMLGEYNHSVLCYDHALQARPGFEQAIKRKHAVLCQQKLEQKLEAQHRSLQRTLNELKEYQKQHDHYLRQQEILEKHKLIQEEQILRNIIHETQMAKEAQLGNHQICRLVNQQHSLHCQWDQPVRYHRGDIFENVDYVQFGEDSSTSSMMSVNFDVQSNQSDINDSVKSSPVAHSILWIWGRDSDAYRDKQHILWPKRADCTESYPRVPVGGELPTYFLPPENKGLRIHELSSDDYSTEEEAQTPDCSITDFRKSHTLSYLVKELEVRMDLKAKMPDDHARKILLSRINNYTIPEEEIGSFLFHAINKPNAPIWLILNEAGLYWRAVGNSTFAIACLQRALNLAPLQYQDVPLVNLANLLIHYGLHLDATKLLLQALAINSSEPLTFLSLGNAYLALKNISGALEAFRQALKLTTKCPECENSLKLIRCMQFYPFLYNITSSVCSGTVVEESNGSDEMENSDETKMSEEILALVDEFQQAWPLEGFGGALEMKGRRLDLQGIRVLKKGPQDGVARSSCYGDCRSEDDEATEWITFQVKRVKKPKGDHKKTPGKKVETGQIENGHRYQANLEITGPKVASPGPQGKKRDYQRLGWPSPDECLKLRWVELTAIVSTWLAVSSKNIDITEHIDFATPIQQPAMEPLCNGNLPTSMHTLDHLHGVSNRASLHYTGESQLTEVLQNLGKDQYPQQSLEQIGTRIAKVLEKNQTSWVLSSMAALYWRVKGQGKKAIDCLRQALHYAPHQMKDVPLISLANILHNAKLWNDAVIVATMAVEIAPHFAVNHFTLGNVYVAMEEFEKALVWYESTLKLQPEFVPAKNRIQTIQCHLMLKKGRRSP
UniProt Q96AY4: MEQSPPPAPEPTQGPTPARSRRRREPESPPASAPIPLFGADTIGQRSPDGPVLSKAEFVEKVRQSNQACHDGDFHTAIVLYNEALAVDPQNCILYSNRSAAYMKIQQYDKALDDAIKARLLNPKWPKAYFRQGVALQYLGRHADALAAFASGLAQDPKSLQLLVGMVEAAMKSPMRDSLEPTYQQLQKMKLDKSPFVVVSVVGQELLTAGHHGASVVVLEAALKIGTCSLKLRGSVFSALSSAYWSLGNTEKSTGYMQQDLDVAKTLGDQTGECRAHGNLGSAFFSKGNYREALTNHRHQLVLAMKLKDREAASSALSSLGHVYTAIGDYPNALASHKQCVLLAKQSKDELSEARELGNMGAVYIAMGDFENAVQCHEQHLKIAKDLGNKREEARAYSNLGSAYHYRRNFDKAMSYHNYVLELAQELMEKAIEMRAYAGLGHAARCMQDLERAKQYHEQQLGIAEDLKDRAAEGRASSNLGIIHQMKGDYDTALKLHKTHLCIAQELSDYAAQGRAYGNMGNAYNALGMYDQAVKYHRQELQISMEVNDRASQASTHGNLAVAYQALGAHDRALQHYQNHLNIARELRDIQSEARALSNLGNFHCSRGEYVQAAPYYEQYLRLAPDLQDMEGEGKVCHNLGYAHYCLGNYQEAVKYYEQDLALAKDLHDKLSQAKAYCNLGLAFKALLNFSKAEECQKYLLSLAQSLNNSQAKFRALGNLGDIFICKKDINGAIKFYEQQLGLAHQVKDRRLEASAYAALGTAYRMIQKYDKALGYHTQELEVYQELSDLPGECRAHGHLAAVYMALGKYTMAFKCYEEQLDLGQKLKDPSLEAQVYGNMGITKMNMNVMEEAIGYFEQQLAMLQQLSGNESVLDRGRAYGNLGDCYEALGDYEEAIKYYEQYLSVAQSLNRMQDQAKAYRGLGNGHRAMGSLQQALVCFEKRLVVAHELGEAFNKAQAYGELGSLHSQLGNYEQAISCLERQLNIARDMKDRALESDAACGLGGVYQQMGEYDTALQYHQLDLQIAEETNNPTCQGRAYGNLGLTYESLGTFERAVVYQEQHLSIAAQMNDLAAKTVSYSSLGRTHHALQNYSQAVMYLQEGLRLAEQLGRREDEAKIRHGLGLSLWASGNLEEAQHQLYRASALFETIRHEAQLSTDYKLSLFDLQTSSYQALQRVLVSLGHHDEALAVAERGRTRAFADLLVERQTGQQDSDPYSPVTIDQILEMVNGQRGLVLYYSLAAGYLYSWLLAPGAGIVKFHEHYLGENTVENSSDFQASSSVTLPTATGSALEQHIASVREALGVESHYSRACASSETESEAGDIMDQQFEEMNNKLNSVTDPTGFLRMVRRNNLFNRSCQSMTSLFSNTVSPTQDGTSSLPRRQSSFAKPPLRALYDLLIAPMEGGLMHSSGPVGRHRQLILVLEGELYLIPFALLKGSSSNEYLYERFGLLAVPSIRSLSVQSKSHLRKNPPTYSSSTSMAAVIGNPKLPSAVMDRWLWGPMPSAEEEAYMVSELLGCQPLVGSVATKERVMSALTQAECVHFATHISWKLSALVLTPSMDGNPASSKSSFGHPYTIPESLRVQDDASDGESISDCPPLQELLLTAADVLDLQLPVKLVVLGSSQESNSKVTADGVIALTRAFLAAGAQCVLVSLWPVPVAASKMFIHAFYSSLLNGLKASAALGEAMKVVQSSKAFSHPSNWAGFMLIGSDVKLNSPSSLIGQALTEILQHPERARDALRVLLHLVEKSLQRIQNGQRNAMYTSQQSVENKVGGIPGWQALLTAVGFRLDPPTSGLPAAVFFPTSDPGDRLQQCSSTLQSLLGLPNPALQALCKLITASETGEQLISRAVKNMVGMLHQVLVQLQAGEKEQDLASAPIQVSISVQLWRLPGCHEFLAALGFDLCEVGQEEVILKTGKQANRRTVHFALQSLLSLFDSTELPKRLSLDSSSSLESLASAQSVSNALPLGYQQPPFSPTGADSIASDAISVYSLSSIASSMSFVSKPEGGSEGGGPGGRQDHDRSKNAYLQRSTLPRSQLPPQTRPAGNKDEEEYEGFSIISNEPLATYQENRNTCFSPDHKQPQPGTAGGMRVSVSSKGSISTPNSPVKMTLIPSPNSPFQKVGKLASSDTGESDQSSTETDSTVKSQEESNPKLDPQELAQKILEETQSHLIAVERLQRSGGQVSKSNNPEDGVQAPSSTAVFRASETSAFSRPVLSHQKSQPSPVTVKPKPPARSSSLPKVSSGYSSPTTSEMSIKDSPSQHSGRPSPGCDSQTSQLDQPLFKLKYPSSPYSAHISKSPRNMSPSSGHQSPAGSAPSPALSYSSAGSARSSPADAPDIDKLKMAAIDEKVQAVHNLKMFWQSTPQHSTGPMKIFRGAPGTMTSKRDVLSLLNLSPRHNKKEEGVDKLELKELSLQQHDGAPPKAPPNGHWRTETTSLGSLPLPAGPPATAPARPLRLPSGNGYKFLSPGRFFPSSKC
UniProt Q96Q11: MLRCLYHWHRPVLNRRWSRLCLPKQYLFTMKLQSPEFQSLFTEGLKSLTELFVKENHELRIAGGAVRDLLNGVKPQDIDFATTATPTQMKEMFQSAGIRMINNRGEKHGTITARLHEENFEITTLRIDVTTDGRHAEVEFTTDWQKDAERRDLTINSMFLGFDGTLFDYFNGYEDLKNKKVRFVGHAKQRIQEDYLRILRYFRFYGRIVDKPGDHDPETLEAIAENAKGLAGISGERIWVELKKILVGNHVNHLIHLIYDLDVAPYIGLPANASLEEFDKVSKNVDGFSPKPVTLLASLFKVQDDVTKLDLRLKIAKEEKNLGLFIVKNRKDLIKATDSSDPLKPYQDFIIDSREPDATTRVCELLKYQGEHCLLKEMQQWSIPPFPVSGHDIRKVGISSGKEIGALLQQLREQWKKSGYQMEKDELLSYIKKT
UniProt Q9NX07: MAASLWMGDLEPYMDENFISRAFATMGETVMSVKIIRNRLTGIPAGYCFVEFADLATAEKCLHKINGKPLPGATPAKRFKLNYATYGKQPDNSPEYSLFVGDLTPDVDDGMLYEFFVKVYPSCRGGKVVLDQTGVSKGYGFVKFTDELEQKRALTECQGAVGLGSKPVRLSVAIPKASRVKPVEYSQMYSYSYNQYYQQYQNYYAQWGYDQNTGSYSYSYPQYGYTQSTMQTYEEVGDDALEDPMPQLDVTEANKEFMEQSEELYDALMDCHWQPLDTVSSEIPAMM

Compound: CC1Cc2ccccc2N1C(=O)C1CCCN(C1)C(=O)CCl (mixture of isomers) [TRIM25 ligand 11 (diastereomer mixture)]
Test: probe-labelled cysteine peptide fold change vs DMSO (competition) (log2 fold change); higher = less target engagement (more negative = stronger competition)
Conditions: THP-1, incubation time: 4 h
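Further: competitive chemoproteomic profiling in live THP-1 cells with an iodoacetamide desthiobiotin (IA-DTB) probe, comparing probe-labelled peptide intensities in compound-treated cells against DMSO-treated controls.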

Target | probe-labelled cysteine peptide fold change (10 µM) | probe-labelled cysteine peptide fold change (50 µM)
TTC27_Q6P3X3_514_ETPSLYCLLGDVLGDHSCYDK (UniProt Q6P3X3) | -0.201 | -0.392
TRMT6_Q9UJA5_243_AATACFGFPK (UniProt Q9UJA5) | -0.0779 | -0.123
TUBGCP2_Q9BSJ2_648_HMFYCK (UniProt Q9BSJ2) | 0.106 | 0.238
TTC38_Q5R3I4_429_DVFNQLLIHAALNCTSSVHK (UniProt Q5R3I4) | -0.0128 | -0.087
TUT4_Q5TAX3_458_VPVVVCR (UniProt Q5TAX3) | -0.11 | 0.271
TSR1_Q2NL82_618_AKEELIFHCGFR (UniProt Q2NL82) | 0.00999 | 0.0707
TUBGCP2_Q9BSJ2_350_TMDILASLATSVDKGECLGGSTLSLLHDR (UniProt Q9BSJ2) | -0.105 | -0.132
TTF2_Q9UNY4_754_VQTSIAVCK (UniProt Q9UNY4) | -0.0312 | -0.0186
TUBB6_Q9BUF5_127_KECEHCDCLQGFQLTHSLGGGTGSGMGTLLISK (UniProt Q9BUF5) | -0.175 | -0.198
TTC17_Q96AE7_412_EAQLGNHQICR (UniProt Q96AE7) | 0.153 | 0.254
TSEN54_Q7Z6J9_338_ETDAESWCQK (UniProt Q7Z6J9) | -0.028 | -0.154
TROVE2_P10155_102_QEPMLFALAICSQCSDISTK (UniProt P10155) | -0.347 | -0.116
TTF2_Q9UNY4_785_CSPFDEFNLWR (UniProt Q9UNY4) | 0.0364 | 0.132
TSTA3_Q13630_116_VVSCLSTCIFPDK (UniProt Q13630) | 0.0546 | -0.122
TTC28_Q96AY4_274_TLGDQTGECR (UniProt Q96AY4) | 0.00414 | 0.121
TRNT1_Q96Q11_373_YQGEHCLLK (UniProt Q96Q11) | -0.0617 | -0.146
TUBGCP4_Q9UGJ1_151_IHGCQILETVYK (UniProt Q9UGJ1) | -0.0417 | 0.202
TRNAU1AP_Q9NX07_48_LTGIPAGYCFVEFADLATAEK (UniProt Q9NX07) | 0.308 | 0.204
TRRAP_Q9Y4A5_1868_LMTFAWPCLLSK (UniProt Q9Y4A5) | -0.115 | -0.136
TTF2_Q9UNY4_204_KQEEGAEIQCEAETGGTHK (UniProt Q9UNY4) | -0.167 | -0.353
TRRAP_Q9Y4A5_852_TLELCVDNLQPDFLYDHIQPVR (UniProt Q9Y4A5) | 0.187 | -0.177
TUFM_P49411_127_HYAHTDCPGHADYVK (UniProt P49411) | 0.102 | 0.0357
TTF2_Q9UNY4_50_ATDIPVSHCLLHEDFVVELQGLLLPQDK (UniProt Q9UNY4) | 0.0771 | 0.271

Quoted at random: two records from the list, in no set order.
Target | probe-labelled cysteine peptide fold change (10 µM) | probe-labelled cysteine peptide fold change (50 µM)
TTC28_Q96AY4_274_TLGDQTGECR (UniProt Q96AY4) | 0.00414 | 0.121
TTC17_Q96AE7_412_EAQLGNHQICR (UniProt Q96AE7) | 0.153 | 0.254
